Data published in article PMC2841626.
No constants are given. Whether binding was seen depends on the method and setting. Binding seen in cells or lysates may run through a third protein. Some binding calls cover weakened binding; strength is not graded here.

Amino acid sequences for entries named in this document (tags omitted).
UniProt Q9QR71: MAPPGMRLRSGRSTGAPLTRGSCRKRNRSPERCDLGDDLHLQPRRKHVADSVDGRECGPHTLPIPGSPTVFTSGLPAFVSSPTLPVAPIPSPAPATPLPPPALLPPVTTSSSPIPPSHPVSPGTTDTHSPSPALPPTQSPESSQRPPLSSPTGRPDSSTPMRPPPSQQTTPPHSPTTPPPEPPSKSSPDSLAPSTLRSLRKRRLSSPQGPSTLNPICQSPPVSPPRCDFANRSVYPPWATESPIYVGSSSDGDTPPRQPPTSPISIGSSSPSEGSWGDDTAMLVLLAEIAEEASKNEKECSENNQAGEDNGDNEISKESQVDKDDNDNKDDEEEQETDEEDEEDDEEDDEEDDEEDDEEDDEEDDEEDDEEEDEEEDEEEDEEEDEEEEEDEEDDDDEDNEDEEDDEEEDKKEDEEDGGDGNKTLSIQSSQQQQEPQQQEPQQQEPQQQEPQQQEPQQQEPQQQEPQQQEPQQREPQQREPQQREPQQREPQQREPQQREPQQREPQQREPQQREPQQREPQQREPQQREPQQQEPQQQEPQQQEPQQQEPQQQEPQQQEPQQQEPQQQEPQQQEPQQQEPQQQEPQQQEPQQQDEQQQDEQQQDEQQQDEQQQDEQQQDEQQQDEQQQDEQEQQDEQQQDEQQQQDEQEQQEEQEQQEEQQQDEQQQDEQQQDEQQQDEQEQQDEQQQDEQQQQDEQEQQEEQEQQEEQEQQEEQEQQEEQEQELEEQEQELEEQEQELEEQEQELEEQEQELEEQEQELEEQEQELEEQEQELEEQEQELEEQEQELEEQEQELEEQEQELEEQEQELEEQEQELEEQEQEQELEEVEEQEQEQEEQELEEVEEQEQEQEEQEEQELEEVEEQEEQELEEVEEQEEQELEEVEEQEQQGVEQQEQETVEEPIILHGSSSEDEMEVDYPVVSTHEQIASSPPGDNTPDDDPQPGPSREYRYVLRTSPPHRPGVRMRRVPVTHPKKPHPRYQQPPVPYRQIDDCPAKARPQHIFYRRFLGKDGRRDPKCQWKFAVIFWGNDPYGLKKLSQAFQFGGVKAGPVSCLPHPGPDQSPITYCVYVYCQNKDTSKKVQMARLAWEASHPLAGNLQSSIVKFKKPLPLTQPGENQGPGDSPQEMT
UniProt P06748: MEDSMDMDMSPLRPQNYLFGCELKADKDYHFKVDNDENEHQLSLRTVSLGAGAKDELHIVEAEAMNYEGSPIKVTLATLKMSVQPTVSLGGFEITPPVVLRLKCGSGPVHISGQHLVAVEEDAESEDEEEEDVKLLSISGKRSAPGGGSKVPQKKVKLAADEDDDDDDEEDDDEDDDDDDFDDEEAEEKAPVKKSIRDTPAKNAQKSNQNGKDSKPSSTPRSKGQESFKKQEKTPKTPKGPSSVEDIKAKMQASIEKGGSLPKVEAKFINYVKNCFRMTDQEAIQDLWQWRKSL

Molecular target: LANA stably expressed in U2OS cells (Kaposi's sarcoma herpesvirus (KSHV)) (UniProt Q9QR71)
Experiment: co-IP; whole cell extracts of U2OS stably expressing LANA, transfected with Myc-v-cyclin or empty vector (48 hours), with or without eGFP-NPM constructs; immunoprecipitation with anti-LANA or anti-NPM, immunoblotting with anti-NPM, anti-GFP, anti-LANA

eGFP-tagged wild-type NPM (from UniProt P06748 1-294)
binding: binds
